# Test results: PubChem BioAssay AID2685 (National Center for Advancing Translational Sciences (NCATS), 2010)
# The campaign covered roughly 320,000 compounds. About 2,100 (0.66%) were called active. The inconclusive results got no clear call from the source; some entries with a clear call stand among them for comparison. Calls follow the shape of the dose curve; as a rule, active = well fitted inhibition curve with a large enough effect in the signal ratio, with a control signal flat (not every such curve was filed as active); inconclusive = small, poorly fitted or top-dose-only effect, or effect the other way, or a change in a side signal; inactive = flat fitted curve, though single readings scatter; the % refers to the signal ratio. Potencies beside an inconclusive call are fits to weak or partial responses and may not hold up.
# Experiment: qHTS Assay for Lipid Storage Modulators in Drosophila S3 Cells
# Conditions: BODIPY lipid droplet fluorescence, 18-24 h, cells fed with added oleic acid; lipid storage change, negative = inhibition: at 46.1 µM (top of the series) unless noted
# Outline: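 Drosophila S3 cells loaded with oleic acid (400 uM, as added) and compounds at several concentrations; lipid droplets imaged by 488-nm laser-scanning cytometry, 500–530 nm intensity and object ratio to cell channel. Percent activity normalized to 20 uM Triacsin C.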
# % is scaled to controls: 0 for no effect and ±100 for the full control effect; potency is read from the fitted curve at half-maximal effect.
Compound,"lipid storage change, negative = inhibition",Potency
Cc1cccc(N(CC(=O)NC(C)(C)C)C(=O)CCC(=O)Nc2nccs2)c1,inconclusive: 39.3%,–
CC(NC(=O)OCc1ccccc1)C(=O)OCN1C(=O)c2ccccc2C1=O (stereo not given),inconclusive: -9.17%,–
Cn1ccnc1SCC(=O)Nc1ccc2c(c1)OCCO2,–,"inconclusive: 5.8 µM [falling, full curve, poor fit]"
CCCOC(=O)C1C2C=C[C@]3(CN(CCc4ccccc4)C(=O)[C@H]13)O2 (stereo not given in full),inconclusive: 66.6%,–
CN(C)CCC(=O)c1ccc(Cl)cc1,inconclusive: -44.9% [at 0.0737 µM],–
CCCCNC(=O)C1CCCN1C(=O)NC1CCCCC1 (stereo not given),inactive,–
COc1ccc(NC(=O)CN(C)S(=O)(=O)c2cnc[nH]2)cc1,–,"inconclusive: 16.4 µM [activator, partial curve]"
COc1cccc(CN2CCN(S(=O)(=O)c3ccc(NC(C)=O)cc3)CC2)c1OC,–,"inconclusive: 1.46 µM [falling, full curve, poor fit]"
O=C(Nc1ccccc1N1CCOCC1)c1cccc(Oc2ccccc2)c1,inconclusive: -8.75%,–
Cc1ccc(NS(=O)(=O)c2cc(NC(=O)c3ccc4c(c3)NC(=O)CS4)ccc2Cl)c(C)c1,–,"inconclusive: 29.1 µM [rising, single point]"
O=C(CN1CCCC1)Nc1cccc(Cl)c1,inconclusive: 10.6%,–
COc1ccccc1NC(=S)N1CCCc2ccccc21,inconclusive: 4.26%,–
COc1cc2c(cc1NC(=O)CSc1nccn1C)oc1ccccc12,inconclusive: -14.6%,–
Cc1cc(C)c2nc(Cl)c(C3NC(=O)c4ccccc4N3)cc2c1 (stereo not given),inconclusive: 19.4%,–
COCC(C)NC(=O)CCc1nnc(C2(c3ccc(Cl)cc3)CCC2)o1 (stereo not given),inactive,–
CCOc1ccc2nc(N(CCCN(C)C)C(=O)c3ccc4c(c3)CCCC4)sc2c1,inconclusive: 5.19%,–
CSc1nc2c(c(=O)[nH]c(=O)n2C)n1Cc1ccccc1,–,"inconclusive: 23.1 µM [activator, single point]"
O=C(NCC1CCCO1)c1cccc(NC(=O)c2ccc(Br)cc2)c1 (stereo not given),inconclusive: -74.1%,–
Cc1ccc(S(=O)(=O)N2CCOCC2)cc1C(=O)OCC(=O)NCc1ccc2c(c1)OCO2,inconclusive: -51.1%,–
CC1CCC(NC(=O)C2CCN(c3nc4ccccc4s3)CC2)CC1 (stereo not given),–,"inconclusive: 0.13 µM [activator, partial curve, poor fit]"
Cc1ccc(NC(=O)CSc2nc(-c3ccco3)nc3cc(=O)[nH]n23)c(Cl)c1,–,"inconclusive: 29.1 µM [falling, single point]"
CCCCn1nc(C(=O)O)ccc1=O,–,"inconclusive: 0.103 µM [falling, full curve, poor fit]"
O=C(CN1CCN(Cc2ccccc2)CC1)Nc1nnc(C(F)(F)F)s1,–,"inconclusive: 25.9 µM [activator, single point]"
NS(=O)(=O)c1ccc(CCNC(=O)CNC(=O)Cc2ccccc2)cc1,–,"inconclusive: 0.0206 µM [activator, full curve, poor fit]"
COc1cccc(C2=CC(=O)C[C@H](c3ccc(F)cc3)C2)c1,inconclusive: -64%,–

# Single records, as listed above. Order of values: lipid storage change, negative = inhibition	Potency
# CN(C)CCC(=O)c1ccc(Cl)cc1 is listed with inconclusive: -44.9% [at 0.0737 µM]	–
# COc1ccc(NC(=O)CN(C)S(=O)(=O)c2cnc[nH]2)cc1 is listed with –	inconclusive: 16.4 µM [activator, partial curve]
# COc1cccc(C2=CC(=O)C[C@H](c3ccc(F)cc3)C2)c1 is listed with inconclusive: -64%	–
# CCCCNC(=O)C1CCCN1C(=O)NC1CCCCC1 (stereo not given) is listed with inactive	–

# Continuation:

Compound,"lipid storage change, negative = inhibition",Potency
COc1ccc(C/C(C)=N/NC(=O)c2ccncc2)cc1,inconclusive: 2.42%,–
O=C(Nc1ccc(S(=O)(=O)Nc2ccccc2)cc1)C1CC1,inconclusive: -48.8%,–
Cc1cc(C)c(NC(=O)CSc2nnc(SCC(=O)Nc3c(C)cc(C)cc3C)n2N)c(C)c1,–,"inconclusive: 20.6 µM [rising, partial curve]"
O=C(NCc1ccccn1)c1ccc(S(=O)(=O)Nc2ccccc2F)cc1,–,"inconclusive: 29.1 µM [activator, partial curve]"
COc1cccc(NC(=O)COC(=O)c2ccccc2C(=O)N(C)c2ccccc2)c1,inconclusive: -13.5%,–
OCCCCNc1cccc2ccccc12,–,"inconclusive: 3.26 µM [activator, single point]"
O=C(NCCNCCO)c1c(O)c2cccc3c2n(c1=O)CCC3,inconclusive: -30%,–
COc1ccc(S(=O)(=O)N2CCC(C(=O)Nc3nccs3)CC2)cc1,–,"inconclusive: 29.1 µM [rising, single point]"
CSc1sc(C(=O)OC(C)C)c2c1C(=O)CC(C)(C)C2,inactive,–
O=C(CSc1ncn(-c2ccccc2)n1)Nc1nc(-c2ccccc2)cs1,inconclusive: -21.7%,–
NS(=O)(=O)c1cccc(NS(=O)(=O)c2ccc(/C=C/C(=O)O)cc2)c1,–,"inconclusive: 6.51 µM [cytotoxic, single point]"
Cc1cccc(OCCCC(=O)Nc2ccc3c(c2)OCO3)c1,inconclusive: 16.9%,–
COc1ccccc1CNC(=O)C(CCSC)NC(=O)C1CCC(C)CC1 (stereo not given),–,"inconclusive: 16.4 µM [activator, single point]"
COc1ccccc1NC(=O)NCCN1CCNC1=O,inconclusive: -12.8%,–
O=C(O)c1cccc(S(=O)(=O)Nc2ccccc2Cl)c1,–,"inconclusive: 0.058 µM [falling, full curve, poor fit]"
CCOc1ccc(-c2nnc(Nc3ccc(OC)c(C(=O)N4CCCCC4)c3)c3ccccc23)cc1,inconclusive: 13%,–
O=C(CCc1nc2ccccc2c(=O)[nH]1)NNC(=O)COc1ccc(Br)cc1,inconclusive,–
CC(C)c1ccc(C(=O)N/N=C/c2cccc(Cl)c2Cl)cc1,inconclusive: -40%,–
CC(C)(C)OC(=O)N1CCC(NC(=O)c2ncn(Cc3ccccc3)c2C(=O)NC2CCN(C(=O)OC(C)(C)C)CC2)CC1,–,"inconclusive: 20.6 µM [cytotoxic, partial curve]"
COc1ccc(CN2CCN(CC3CC3)CC2CCO)c(C)c1C (stereo not given),inconclusive: -4.72%,–
Cc1cc(C)nc(SCC(=O)OCC(=O)Nc2ccccc2)n1,–,"inconclusive: 0.651 µM [falling, partial curve, poor fit]"
O=C(c1cc([N+](=O)[O-])ccc1Cl)N1CCN(Cc2ccc3c(c2)OCO3)CC1,inconclusive: 1.45%,–
CCCc1nn2c(=O)cc(CSCC(=O)Nc3ccc(OC)cc3)nc2s1,inconclusive: 3.7%,–
COC(=O)C1=C(C)NC(=O)CC1c1cc2c(cc1Br)OCO2 (stereo not given),inconclusive: 7.69%,–
Cc1cc(C)c2nc(SCC(=O)N3CCCCC3)c(C#N)cc2c1,inconclusive: -12.7%,–

Compound,"lipid storage change, negative = inhibition",Potency
CCOCCc1nnc(NC(=O)C(CC)c2ccccc2)s1 (stereo not given),–,"inconclusive: 29.1 µM [activator, single point]"
O=C(COc1ccc2ccccc2c1Br)Nc1cccnc1,–,"inconclusive: 29.1 µM [falling, single point]"
CC(C)Oc1cccc(C(=O)NC(=S)Nc2ccc(N3CCN(C)CC3)cc2)c1,inconclusive: -22.6%,–
CCCc1cc(=O)oc2c(C)c3occ(C)c3cc12,–,"inconclusive: 1.3 µM [activator, full curve, poor fit]"
Cc1cccc(-c2cc3nc4c(c(NCc5ccco5)n3n2)CCCC4)c1,–,"inconclusive: 3.26 µM [falling, full curve, poor fit]"
O=C(N/N=C/c1ccccn1)c1ccncc1,inconclusive: 63.9%,–
N#Cc1nc(-c2cccc3ccccc23)oc1NCC#CCOC(=O)c1cccs1,–,active: 14.6 µM
O=C(O)C1CCCCC1C(=O)NCc1ccccc1 (stereo not given),inconclusive: 7.55%,–
COc1ccc(CN2c3cc(S(=O)(=O)N4CCOCC4)ccc3N3CCCC32)cc1 (stereo not given),–,active: 16.4 µM
O=C(Nc1ccc(Cl)cc1)C1C2C=CC3(O2)C1C(=O)N(CCCN1CCCCC1)C3C(=O)NC1CCCCC1 (stereo not given),–,"inconclusive: 0.517 µM [falling, full curve, poor fit]"
Cc1c(C(=O)N2CCCCC2)c(S(=O)(=O)N2CCN(c3ccccc3F)CC2)c(C)n1C,inconclusive: -31.5%,–
O=C1CC(c2ccccc2)CC(O)=C1C=NCCN1CCN(C(=S)Nc2cccc(Cl)c2)CC1 (stereo not given),inconclusive: 8.1%,–
COc1ccc(C2=CC(c3ccc(C)cc3)n3nnnc3N2)cc1 (stereo not given),inconclusive: -32.3%,–
Cc1ccc(Cl)cc1N1CCN(C(=O)CN(C2CCCCC2)S(C)(=O)=O)CC1,–,"inconclusive: 20.6 µM [falling, single point]"
Cc1ccc(N(CC(=O)NCCc2ccccc2)C(=O)CCC(=O)Nc2cc(C)ccn2)cc1,inconclusive: 43.7%,–
CCOc1cccc(/C=N/NC(=O)c2cccnc2)c1O,–,"inconclusive: 0.82 µM [activator, full curve]"
O=C(OCCOc1ccc(Br)cc1)c1ccc(Cl)c(S(=O)(=O)N2CCOCC2)c1,inconclusive,–
COc1cc(CCC(=O)OCC(=O)Nc2ccccc2OC(F)F)cc(OC)c1OC,inconclusive: 15.4%,–
O=c1c2ccccc2nc2n1-c1ccccc1CCC2,inconclusive: -1.96%,–
O=C(NCc1cccc(C(F)(F)F)c1)c1ccc(=O)[nH]c1,inconclusive: -25%,–
Cc1cc(C)c2c(c1)[C@@H]1C=CC[C@@H]1[C@H](c1ccc(S(=O)(=O)N3CCOCC3)cc1)N2,inconclusive: -5.89%,–
CCN(CC)C(=O)COc1ccc(/C=C(\C#N)S(=O)(=O)c2ccccc2)cc1OC,inconclusive: 4.87%,–
O=c1[nH]c(C2CCN(S(=O)(=O)c3ccccc3F)CC2)nc2c1nnn2Cc1ccc(OC(F)(F)F)cc1,inconclusive: -3.43%,–
CCOC(=O)c1[nH]c(C)c(C(=O)Nc2ccccc2C)c1C,–,"inconclusive: 0.58 µM [activator, full curve, poor fit]"
CC(=O)N[C@H]1C[C@@H]1c1ccccc1,inconclusive: 18.2%,–
